In patent US11066414B2, “Cot modulators and methods of use thereof” (Gilead Sciences, Inc., priority 2015, dated 2021):

Tested on: TNFα
Test: Cot Monocyte TNFα Cell Based Assay
Conditions: read-out: EC50 TNF, LPS-stimulated human monocytes

EC50: 23 nM
Structure (SMILES): CC(C)(C)CNc1c(C#N)cnc2c(C#N)cc(N[C@H](c3cn([C@H]4C[C@@H]4F)nn3)c3cccc4cnccc34)cc12

Structures were worked out from names or drawings and are uncertain.
